Publication PMC4299599, “Quantification of cytosolic interactions identifies Ede1 oligomers as key organizers of endocytosis” (Molecular Systems Biology, 2014)
These are yes or no findings as the source states them, for the method shown.

B1: Pan1 (protein, UniProt P32521 1-1480)
chain: MYNPYQQQGMGYQQQQQQQQQQPNGFYPQQQQGQSSNQPQGQPQPQQQMAFNQPQATGIGGMPQSFGNSFSSMPQQPQTGYNNNGNNGSVYGNGNFGQQPQQQQQQAKPQHTGYVPNSSMPMMNTTGTMPPPNPAQQPQLQSIQPQGTGYYQAANTANVHSVQPLQSQGTGYYVSTPNLISSNQTQQPLQAQGTGYYQSQPQQVPPPQQAQSLQPLKPQQTGFYLQPQNQAPLEPLKPTATGFVNSFANNGLNNDIKIPAIRLSFITAQDQAKFETLFRSIVTNGSNTVSGANCRKILMRSGLPPSQLARIWTLCDTSKAGELLFPEFALAMHLINDVLQGDTIPYELDSKTKNEVSSFIDAINLSIANQDSSANDAPKTPFDEFITAGVQNLQPQPTGYMPQTSFGIPLQSQITGGGVASALNPQSTGFMAPTTFNMSMNTGTPGLNPQITGGAPASMQPNITGNALQPQTTGMMPQTTGMMPQTTGMMPQTSFGVNLGPQLTGGALQSQYTGGYGSVMPQQSGPASMPNLSFNQQGLQSQLTGLQPQPTGFLPPSNFSATMPLTAQKTGFGNNEIYTKSNFNNNLIDNSSQDKISTEEKSLFYKIFETFDTQNKGLLDSPTAVEIFRKSGLNRADLEQIWNLCDINNTGQLNKQEFALGMHLVYGKLNGKPIPNVLPSSLIPSSTKLLDNLKNQLKTEPTTTKEKPSFGKIDALSYKNNDDDVLPNYRNRRKVYSAKNEEQSSFSSPSAKSVNHSSSTLQTDDISVDKTVEKKTAKPKYAGFSREINLKNIASLENEIKNISNPENCYDSSIPSDLTSRFDAIIAKLPNLFNEISTIDNEITNAKIQLYRKKNPSSIIGSGPNGEITENDRKKAKSRALLRARMSALTGKSTESEDSLSMEDEQQSAEIKRIQQENGKNQEIIKDIRSSISDISASLKSTMTGSNMISNQEFERWEFGIGLEDGVREFLDDLKSNSNKSVTESSPFVPSSTPTPVDDRSSSPSYSQFKTAEERAAYLKEQAKKRMKEKLAKFDKNRRNVTQSSRSISSENSREQPQQIAGSSNLVEPRATPFQEEKYVEVAQPTQPVQSTQPVQPTQPVQPTQPVQPTQPVQPTQPVQPTQPVQNVYNAKQESDDEDEDDEEKRLQEELKRLKLKKKADKEKRLAALRKQIEDAQNESDEEETNGKDNFGGHVNVPQAAPVAPSAAFSQNSTNAPRSVHAAVTPAAGKNSTGLPSTTMGHNPYFKDASASSTSTFDARAAEMQRRIQRGLDEDEDDGWSDEDESNNRVAVDNKVEEAKIGHPDHARAPPVTAAPLPSVTPVPPAVPVPQANTSNEKSSPIPIAPIPPSVTQEPPVPLAPPLPAVDGFQEPPIPSAPAIATAVQKSGSSTPALAGGVLPPPPPLPTQQASTSEPIIAHVDNYNGAEKGTGAYGSDSDDDVLSIPESVGTDEEEEGAQPVSTAGIPSIPPAGIPPPPPLP
B2: Scd5 (protein, UniProt P34758 1-872)
chain: MSFDWLNVPGLDLSSGDQAEKRPSNGLGPPSVSFDFGINTAAPHDSSFWDQGSRSHSDTTLSYRNNHSNTAADNATNVSSPQKDNPPNGEVRTLSGGDVYAESPEDMQVPLSLSQNQLTHEEIRTYLRWYHYICLRTHGKLVRLNDVFRFLTNFNLSQKVKDRIVEIFRSCKNALNIGQFFAVLRLVSRAIIYGILPLRRMILEKAPVPKPRPILSSENHEEVYEEVEDDDSSAKTGDQKVDFDSFASLLLTGKTTRKRVRRRIKNLNFKSKKVRFSEHITFQDPPNLNQESSNNSEARKQDPDAEDEDQDSNNDSPLDFTLPMDQLLKRLYKRRKNSGLVSSLPSEQQETEEEKKVLEDMKDSLSHFKQIQTVDSASLPISSVFLQNGNTLPTSNVNNTTVPQQLPLEPLKPTATGSANHLVREEYNQGLHPSNGAIQTGLQPLKPTATGSANYLMRSHMEQPQSIKPSSTPETVTNSGGLQPLKPTATGSANYLMKQHISPSVNNPVSSMFQAQFTNQSSSPQSTGPAFLNSPNITLPQSNQQQPYQEVNPTQAKIEPSNISPQHTYSNNVRINNGNIVSMPKVEITGAFPPQNTLPQHQQSHLLSPQNTIPQHQRSQLISPQNTFTQNQPILSPQHTYSNNQATMISPQNTYTNNQQQPQHLPPPPPPRAQQQQQGAIVPPQHMYSNVQKQNNLVPTQPSYTNSPSIQSPNFLSPQNAANSYFQSLLSSSPSPNPTPSNASTVNGNNASNGISSFQNTSAAMNNTQSHQTYIQQQQQQQTQQRIYGGQLSQMQQHPGQLHLNNSDIHSQPNKPNYGMLGQQVHQQQQQQQQQFPFTADVNRSNSSDILGNLQSLQQQVDALQIQYNRRP

Key:
Test in all cases: condition: 1000 nM (only Kdeff-values < 1000 nM are shown); fluorescence cross-correlation spectroscopy (FCCS); in the cytoplasm of living yeast cells; first-named protein green (3myeGFP or 1myeGFP; eGFP for Don1), second red (3mCherry); self-interaction in diploid strains with one allele of each colour; apparent or effective KD (Kdeff) from single-cell measurements; only Kdeff values < 1000 nM are shown; values for self-interactions are upper limits
[1] = biological target: T1, Ent1 (S. cerevisiae) (UniProt Q12518)
T1 sequence: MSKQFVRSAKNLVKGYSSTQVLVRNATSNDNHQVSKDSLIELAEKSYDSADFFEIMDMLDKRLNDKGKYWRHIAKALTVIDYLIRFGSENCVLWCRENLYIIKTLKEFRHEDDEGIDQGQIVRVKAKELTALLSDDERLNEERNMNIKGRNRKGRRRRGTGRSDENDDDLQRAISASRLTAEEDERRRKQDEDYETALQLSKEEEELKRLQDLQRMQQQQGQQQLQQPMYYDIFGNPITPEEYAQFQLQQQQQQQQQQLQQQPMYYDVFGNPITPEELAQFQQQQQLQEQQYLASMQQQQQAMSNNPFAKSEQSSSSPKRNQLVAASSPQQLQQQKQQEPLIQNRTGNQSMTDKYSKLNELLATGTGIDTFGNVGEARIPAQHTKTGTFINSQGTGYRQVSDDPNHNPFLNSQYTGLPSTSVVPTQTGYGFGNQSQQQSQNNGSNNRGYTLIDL

[2] = biological target: T2, Sla1 (S. cerevisiae, UniProt P32790 1-1244)
T2 construct: Sla1, S. cerevisiae; also called Sla1-3myeGFP; Sla1-3mCherry; source: chromosomally tagged at the endogenous locus, in the cytoplasm of living S. cerevisiae cells
T2 sequence (looked up): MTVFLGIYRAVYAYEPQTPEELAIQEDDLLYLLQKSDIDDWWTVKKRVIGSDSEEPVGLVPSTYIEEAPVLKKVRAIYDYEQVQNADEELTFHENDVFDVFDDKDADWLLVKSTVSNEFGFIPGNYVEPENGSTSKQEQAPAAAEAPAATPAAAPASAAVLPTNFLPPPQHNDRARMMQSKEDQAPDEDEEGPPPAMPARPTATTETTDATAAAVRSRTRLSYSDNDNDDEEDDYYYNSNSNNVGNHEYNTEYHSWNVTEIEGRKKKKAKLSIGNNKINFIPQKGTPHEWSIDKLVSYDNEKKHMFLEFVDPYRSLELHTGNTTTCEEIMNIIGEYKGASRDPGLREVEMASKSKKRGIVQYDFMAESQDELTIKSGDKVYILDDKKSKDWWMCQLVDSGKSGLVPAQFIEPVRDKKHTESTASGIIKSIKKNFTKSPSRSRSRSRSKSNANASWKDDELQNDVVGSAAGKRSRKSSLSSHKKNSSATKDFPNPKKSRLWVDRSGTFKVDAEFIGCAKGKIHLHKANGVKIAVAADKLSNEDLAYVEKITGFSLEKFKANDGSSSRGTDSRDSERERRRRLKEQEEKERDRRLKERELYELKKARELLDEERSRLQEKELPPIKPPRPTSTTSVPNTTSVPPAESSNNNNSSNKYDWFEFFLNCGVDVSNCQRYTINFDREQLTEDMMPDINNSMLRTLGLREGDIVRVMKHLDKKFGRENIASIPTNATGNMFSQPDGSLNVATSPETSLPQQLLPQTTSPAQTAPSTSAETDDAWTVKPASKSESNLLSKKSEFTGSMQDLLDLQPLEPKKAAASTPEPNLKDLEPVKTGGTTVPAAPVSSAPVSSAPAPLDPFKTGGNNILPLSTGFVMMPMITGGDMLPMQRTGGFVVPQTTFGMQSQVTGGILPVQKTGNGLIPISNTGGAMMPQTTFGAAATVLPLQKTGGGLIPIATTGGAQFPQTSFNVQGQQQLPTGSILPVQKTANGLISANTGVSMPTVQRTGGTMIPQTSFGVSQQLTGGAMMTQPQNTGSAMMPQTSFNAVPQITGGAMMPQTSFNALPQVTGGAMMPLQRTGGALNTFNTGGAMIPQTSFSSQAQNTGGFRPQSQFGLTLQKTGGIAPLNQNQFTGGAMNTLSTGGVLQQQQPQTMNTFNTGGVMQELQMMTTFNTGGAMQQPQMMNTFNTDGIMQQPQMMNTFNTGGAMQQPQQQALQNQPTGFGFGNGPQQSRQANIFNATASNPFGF

[3] = biological target: T3, End3 (S. cerevisiae) (UniProt P39013)
T3 sequence: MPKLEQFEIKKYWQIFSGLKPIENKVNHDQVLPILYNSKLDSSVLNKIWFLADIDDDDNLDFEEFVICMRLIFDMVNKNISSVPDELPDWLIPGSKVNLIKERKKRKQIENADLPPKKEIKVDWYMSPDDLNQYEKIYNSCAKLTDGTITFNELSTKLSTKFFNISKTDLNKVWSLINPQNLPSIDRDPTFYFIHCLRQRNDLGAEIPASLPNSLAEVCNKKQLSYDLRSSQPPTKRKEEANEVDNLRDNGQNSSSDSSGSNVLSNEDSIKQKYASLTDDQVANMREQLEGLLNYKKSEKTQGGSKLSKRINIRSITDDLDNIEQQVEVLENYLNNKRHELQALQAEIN

Binder | binding [1] | binding [2] | binding [3]
B1 | no binding |  | 
B2 |  | no binding | no binding
